Reference: publication PMC13501995
Results are given in words; binding and its absence hold for the method and conditions named. Some binding calls cover weakened binding; strength is not graded here.

Sequences of proteins named here, by UniProt entry; tags and fusion partners are left off.
UniProt Q9H6L5: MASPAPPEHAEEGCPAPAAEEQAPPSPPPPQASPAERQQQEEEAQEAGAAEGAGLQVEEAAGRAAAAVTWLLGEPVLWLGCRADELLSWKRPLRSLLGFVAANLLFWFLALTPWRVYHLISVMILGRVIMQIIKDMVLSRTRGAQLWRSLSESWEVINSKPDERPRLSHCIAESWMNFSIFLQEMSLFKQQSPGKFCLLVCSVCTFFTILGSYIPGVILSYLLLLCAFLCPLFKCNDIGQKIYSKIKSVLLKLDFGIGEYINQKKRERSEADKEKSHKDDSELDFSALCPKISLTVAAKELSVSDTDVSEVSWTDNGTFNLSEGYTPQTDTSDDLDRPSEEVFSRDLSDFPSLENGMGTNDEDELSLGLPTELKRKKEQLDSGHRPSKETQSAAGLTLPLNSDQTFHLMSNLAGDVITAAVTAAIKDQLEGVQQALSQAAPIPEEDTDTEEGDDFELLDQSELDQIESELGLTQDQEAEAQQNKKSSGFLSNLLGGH

What was measured:
[1] = target: SFB-RETREG1 purified from infected HeLa cells (UniProt Q9H6L5); test: native gel or EMSA; both purified
[2] = target: S-protein-FLAG-streptavidin binding peptide (SFB)-RETREG1, purified from HEK293T cells (UniProt Q9H6L5); test: native gel or EMSA; blue native PAGE (4-12% gradient) of purified SFB-RETREG1 incubated with S-LPS or lipid A at 37°C for 2 h; immunoblot with anti-FLAG; both purified

| binding [2] | Substance | binding [1] |
| --- | --- | --- |
|  | SFB-RETREG1 purified from infected HeLa cells (from UniProt Q9H6L5 1-497) | binds |
| binds | S-protein-FLAG-streptavidin binding peptide (SFB)-RETREG1, purified from HEK293T cells (from UniProt Q9H6L5 1-497) |  |
